Measured values reported in the supplement of paper PMC10849652.
Some of the results follow.

By UniProt entry, the sequences of proteins in these tests, tags left out. Where a name states a change or a piece, a line headed by the entry shows the natural chain unless it says otherwise.
UniProt O75486: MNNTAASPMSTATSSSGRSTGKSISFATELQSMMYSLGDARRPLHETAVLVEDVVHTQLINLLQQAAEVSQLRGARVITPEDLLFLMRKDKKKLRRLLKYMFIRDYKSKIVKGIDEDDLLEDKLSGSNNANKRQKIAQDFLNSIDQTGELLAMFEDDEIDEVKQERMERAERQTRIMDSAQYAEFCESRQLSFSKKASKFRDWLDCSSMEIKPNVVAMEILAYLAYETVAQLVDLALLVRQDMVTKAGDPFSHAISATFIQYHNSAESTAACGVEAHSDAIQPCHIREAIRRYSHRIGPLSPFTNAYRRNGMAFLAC
UniProt Q8N300: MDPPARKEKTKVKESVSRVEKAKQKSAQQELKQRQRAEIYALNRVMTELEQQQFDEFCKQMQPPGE
UniProt Q9Y6Q2: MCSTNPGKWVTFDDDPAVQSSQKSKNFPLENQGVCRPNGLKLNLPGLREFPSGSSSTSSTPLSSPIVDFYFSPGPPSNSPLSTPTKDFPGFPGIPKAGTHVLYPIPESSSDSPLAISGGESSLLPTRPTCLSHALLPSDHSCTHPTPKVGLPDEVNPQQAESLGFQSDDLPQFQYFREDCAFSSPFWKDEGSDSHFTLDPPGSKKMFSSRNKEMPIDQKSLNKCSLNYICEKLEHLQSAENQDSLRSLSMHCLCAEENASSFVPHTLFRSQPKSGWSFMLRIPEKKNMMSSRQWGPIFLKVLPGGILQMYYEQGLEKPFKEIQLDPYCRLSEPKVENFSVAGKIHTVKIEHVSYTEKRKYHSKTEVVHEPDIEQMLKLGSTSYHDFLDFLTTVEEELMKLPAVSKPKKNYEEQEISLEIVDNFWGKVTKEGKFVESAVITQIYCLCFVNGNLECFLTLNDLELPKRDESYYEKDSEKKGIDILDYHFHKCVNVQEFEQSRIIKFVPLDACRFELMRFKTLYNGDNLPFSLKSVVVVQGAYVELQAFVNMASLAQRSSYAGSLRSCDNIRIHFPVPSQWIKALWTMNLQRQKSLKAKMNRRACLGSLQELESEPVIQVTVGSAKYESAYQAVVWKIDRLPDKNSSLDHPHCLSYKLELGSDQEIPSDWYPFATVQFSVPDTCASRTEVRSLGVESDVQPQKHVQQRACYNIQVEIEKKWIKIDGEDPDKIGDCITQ
UniProt O94901, whole entry, looked up: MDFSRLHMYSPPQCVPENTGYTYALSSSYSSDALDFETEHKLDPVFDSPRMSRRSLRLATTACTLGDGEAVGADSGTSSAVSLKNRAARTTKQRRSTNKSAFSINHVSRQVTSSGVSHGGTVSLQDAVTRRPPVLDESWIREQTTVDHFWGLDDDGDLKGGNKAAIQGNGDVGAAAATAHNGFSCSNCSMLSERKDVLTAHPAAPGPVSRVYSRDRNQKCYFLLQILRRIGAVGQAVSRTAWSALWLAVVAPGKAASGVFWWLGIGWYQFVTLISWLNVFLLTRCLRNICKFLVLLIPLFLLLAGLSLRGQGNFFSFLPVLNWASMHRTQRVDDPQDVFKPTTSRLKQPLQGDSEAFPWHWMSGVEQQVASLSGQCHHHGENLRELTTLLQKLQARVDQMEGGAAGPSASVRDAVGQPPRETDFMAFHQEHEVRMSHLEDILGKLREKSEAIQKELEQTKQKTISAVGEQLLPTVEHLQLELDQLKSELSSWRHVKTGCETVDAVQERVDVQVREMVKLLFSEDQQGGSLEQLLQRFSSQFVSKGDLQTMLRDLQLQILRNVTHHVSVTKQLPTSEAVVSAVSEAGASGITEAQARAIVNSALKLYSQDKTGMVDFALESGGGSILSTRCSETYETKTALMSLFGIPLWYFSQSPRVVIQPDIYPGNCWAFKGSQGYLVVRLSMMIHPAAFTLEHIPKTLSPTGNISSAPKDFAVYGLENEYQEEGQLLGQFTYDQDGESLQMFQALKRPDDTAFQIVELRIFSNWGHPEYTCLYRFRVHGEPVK
UniProt O43759: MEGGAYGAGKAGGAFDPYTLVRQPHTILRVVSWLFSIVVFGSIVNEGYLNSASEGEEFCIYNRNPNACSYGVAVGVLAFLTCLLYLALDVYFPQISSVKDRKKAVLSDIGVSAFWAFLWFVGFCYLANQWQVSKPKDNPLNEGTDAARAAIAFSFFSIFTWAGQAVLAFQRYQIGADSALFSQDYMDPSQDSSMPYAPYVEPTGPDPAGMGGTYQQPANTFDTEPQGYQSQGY
UniProt Q9UEE5: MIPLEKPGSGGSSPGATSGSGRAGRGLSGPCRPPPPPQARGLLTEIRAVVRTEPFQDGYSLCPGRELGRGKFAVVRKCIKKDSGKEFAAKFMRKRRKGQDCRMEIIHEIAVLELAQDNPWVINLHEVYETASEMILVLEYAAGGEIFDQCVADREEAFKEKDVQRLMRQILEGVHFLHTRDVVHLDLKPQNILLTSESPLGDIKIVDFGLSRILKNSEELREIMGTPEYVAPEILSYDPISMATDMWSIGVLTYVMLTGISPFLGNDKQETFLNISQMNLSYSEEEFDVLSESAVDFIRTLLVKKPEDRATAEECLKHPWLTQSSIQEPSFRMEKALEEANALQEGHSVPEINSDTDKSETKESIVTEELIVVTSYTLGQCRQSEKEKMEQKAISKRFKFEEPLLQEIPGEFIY
UniProt Q9UBS9: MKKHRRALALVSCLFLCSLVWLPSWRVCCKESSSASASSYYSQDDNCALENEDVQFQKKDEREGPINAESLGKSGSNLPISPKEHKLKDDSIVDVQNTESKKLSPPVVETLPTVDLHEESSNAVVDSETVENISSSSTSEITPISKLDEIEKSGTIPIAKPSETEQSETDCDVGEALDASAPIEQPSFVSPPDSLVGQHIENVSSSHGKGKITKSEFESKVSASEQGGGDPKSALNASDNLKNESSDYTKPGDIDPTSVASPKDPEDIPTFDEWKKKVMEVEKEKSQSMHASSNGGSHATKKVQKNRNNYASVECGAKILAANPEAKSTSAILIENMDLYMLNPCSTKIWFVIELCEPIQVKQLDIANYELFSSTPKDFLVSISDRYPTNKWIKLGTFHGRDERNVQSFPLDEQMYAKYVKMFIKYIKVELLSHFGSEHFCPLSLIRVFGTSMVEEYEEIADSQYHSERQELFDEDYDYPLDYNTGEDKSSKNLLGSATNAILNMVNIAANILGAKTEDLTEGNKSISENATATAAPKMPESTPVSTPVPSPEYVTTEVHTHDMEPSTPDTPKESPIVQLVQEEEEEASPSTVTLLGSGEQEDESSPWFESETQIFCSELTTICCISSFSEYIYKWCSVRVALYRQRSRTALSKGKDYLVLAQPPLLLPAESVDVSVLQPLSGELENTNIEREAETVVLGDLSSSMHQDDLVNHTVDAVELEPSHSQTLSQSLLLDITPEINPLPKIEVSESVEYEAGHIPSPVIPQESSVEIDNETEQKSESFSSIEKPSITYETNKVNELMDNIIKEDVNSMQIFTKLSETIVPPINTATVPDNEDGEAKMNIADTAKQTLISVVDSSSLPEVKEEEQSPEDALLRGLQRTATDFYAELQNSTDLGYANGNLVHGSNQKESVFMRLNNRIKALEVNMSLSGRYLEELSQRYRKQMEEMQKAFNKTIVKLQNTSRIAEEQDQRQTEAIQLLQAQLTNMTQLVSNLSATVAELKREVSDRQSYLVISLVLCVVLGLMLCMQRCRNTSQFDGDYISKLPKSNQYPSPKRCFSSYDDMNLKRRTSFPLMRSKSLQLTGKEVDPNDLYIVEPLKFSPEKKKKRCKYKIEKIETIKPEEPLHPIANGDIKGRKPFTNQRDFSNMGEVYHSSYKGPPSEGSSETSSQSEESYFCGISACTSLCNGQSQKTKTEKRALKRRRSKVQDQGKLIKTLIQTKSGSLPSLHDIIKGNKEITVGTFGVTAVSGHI
UniProt O94804: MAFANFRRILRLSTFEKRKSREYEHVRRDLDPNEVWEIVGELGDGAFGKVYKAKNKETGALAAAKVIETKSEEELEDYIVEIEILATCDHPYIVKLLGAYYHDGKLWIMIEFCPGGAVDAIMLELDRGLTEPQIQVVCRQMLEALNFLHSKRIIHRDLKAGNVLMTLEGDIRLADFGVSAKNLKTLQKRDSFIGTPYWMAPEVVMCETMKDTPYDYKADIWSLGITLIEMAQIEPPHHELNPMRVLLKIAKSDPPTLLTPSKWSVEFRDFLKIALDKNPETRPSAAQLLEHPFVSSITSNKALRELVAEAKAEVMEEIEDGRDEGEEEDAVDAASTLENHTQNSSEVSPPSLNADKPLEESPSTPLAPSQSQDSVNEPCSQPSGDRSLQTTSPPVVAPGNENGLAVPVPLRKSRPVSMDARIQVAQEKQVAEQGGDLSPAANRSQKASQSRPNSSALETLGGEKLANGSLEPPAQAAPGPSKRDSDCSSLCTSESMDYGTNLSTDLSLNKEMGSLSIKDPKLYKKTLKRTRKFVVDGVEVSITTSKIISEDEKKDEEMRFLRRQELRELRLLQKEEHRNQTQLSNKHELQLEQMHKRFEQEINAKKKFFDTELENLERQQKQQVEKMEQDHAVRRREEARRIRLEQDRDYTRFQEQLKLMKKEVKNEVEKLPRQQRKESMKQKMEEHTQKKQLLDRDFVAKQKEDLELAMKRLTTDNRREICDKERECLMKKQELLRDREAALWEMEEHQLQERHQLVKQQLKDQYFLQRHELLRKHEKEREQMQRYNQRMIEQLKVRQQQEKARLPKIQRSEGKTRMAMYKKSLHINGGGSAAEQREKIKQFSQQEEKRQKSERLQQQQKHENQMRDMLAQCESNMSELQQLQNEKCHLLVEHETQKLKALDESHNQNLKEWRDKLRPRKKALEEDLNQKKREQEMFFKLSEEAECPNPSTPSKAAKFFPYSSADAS
UniProt Q9Y2H1: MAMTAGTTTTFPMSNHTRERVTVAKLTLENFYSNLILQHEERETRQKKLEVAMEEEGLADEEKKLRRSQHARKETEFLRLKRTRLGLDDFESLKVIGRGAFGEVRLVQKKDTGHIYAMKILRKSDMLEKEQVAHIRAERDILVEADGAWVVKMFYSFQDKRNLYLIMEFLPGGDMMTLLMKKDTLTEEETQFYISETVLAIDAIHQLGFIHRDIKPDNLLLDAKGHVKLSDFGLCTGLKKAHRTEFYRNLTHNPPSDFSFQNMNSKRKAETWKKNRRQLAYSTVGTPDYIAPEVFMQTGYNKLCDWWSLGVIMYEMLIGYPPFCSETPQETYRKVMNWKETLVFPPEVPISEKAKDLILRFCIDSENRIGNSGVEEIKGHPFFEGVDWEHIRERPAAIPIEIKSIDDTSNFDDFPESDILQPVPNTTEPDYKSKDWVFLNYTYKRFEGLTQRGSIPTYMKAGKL
UniProt O43761: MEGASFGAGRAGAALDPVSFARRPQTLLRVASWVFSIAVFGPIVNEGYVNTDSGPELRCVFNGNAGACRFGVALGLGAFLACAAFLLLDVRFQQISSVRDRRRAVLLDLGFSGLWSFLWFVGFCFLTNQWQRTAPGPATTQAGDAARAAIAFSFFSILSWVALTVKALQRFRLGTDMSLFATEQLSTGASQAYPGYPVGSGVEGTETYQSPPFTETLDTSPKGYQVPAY
UniProt Q9P289: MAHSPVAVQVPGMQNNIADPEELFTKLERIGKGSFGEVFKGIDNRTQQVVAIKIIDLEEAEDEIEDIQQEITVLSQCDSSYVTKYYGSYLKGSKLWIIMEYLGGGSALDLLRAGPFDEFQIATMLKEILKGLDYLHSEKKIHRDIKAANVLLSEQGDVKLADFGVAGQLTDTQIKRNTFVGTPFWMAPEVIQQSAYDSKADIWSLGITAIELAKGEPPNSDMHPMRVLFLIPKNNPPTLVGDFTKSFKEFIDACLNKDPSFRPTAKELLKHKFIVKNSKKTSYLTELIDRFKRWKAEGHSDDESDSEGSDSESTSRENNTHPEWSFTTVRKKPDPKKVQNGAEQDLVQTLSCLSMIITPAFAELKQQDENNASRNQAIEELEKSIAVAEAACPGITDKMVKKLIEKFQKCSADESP
UniProt Q9UMX1: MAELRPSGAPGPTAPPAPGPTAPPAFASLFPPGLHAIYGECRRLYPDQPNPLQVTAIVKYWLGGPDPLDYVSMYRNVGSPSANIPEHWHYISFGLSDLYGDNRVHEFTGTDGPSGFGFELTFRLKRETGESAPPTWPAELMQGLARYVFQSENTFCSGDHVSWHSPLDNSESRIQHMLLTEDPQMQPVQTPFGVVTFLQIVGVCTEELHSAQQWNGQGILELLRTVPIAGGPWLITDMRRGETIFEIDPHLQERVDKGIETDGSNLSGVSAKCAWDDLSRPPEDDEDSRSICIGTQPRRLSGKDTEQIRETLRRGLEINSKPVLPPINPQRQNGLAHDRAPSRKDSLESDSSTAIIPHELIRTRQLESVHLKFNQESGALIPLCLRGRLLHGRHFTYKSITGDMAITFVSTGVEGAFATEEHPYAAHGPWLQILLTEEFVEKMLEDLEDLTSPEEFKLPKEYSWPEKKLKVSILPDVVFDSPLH
UniProt Q6NVH7: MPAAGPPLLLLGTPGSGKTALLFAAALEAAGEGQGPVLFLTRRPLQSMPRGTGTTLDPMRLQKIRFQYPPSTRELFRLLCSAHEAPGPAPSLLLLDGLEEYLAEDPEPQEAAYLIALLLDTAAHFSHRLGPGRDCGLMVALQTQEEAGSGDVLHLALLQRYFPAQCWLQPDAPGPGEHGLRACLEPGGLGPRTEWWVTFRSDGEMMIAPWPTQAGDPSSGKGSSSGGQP

Experiments:
Test in all cases: log2 fold change, soluble protein after heating vs DMSO (PISA); higher = thermal stabilisation; K562 lysate, 10 uM; active = over 0.2 and 3.5 SD of the protein, either way, in both replicates (recomputed)
erlotinib = compound: C#Cc1cccc(Nc2ncnc3cc(OCCOC)c(OCCOC)cc23)c1 [erlotinib]
Outline: (§1)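 Pellets of K562 cells were dounce-homogenised in PBS pH 7.4 with 1 mM MgCl2, and the crude extract was held at 1 mg/mL protein for a 30 min treatment with 10 μM compound. Aliquots were heated for 3 min over 48°C-58°C and pooled before NP-40 was added to 0.5% at 4°C. The supernatant from 21,000xg for 90 min was quantified by TMTpro 16plex LC-MS/MS with channel sums equalised. Values are reported from duplicates as log-two fold change in thermal stability relative to solvent controls.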

[1] = compound: C1=CC(=CC=C1C2=NC3=C(N2)C=C(C=C3)C(=O)N)OC4=CC=C(C=C4)Cl
Outline: as §1

[2] = compound: C1=CC=C(C=C1)C2=NC(=C(N2)C3=CC=NC=C3)C4=CC(=C(C=C4)Cl)O
Outline: as §1

[3] = compound: C1CCN(C1)C(=O)NC2=CC=CC(=C2)NC3=NC=C(C(=N3)NCCC4=CN=CN4)Br
Outline: as §1

[4] = compound: C1CN(CCC1(CC2=CC=C(C=C2)Cl)N)C3=NC=NC4=C3C=CN4
Outline: as §1

IRAK-1-4 Inhibitor I = compound: C1COCCN1CCN2C3=CC=CC=C3N=C2NC(=O)C4=CC(=CC=C4)[N+](=O)[O-] [IRAK-1-4 Inhibitor I]
Outline: as §1

[5] = compound: CC(=O)c1cnc2ccc(-c3cc(Cl)c(O)c(Cl)c3)nc2c1N[C@H]1CC[C@H](CN(C)C)CC1
Outline: as §1

ralimetinib = compound: CC(C)(C)Cn1c(N)nc2ccc(-c3[nH]c(C(C)(C)C)nc3-c3ccc(F)cc3)nc21 [ralimetinib]
Outline: as §1

[6] = compound: CC(C)(O)CC(=O)NCCn1ccc2ncnc(Nc3ccc(Oc4cccc(C(F)(F)F)c4)c(Cl)c3)c21
Outline: as §1

[7] = compound: CC(C)C1=C2N=C(C=C(N2N=C1)NCC3=CC=CC=C3)NCCCCCCN
Outline: as §1

[8] = compound: CC1=C(C=C(C=C1)NC(=O)C2=CC(=CC=C2)C(C)(C)C#N)NC3=CC4=C(C=C3)N=CN(C4=O)C
Outline: as §1

[9] = compound: CC1=C(C=C(C=C1)NC(=O)C2=CC(=CC=C2)N(C)C)NC(=O)C3=CC=C(C=C3)O
Outline: as §1

[10] = compound: CC1=CC=C(C=C1)SC2=C3C=C(SC3=CN=C2)C(=O)N
Outline: as §1

[11] = compound: CC1=C(C2=C(C=C1)C(=O)C3=CC=CC=C3N2CCCN)C
Outline: as §1

[12] = compound: C1=CC2=NC=CN=C2C=C1/C=C/3\C(=O)NC(=O)S3
Outline: as §1

ibrutinib = compound: C=CC(=O)N1CCC[C@@H](n2nc(-c3ccc(Oc4ccccc4)cc3)c3c(N)ncnc32)C1 [ibrutinib]
Outline: as §1

[13] = compound: CC1=C(C(CC(=O)N1)C2=CC=C(C=C2)C(F)(F)F)C(=O)NC3=C(C=C4C(=C3)C=NN4)F
Outline: as §1

[14] = compound: C/C(=N\NC(=O)C1=CC(=CC=C1)S(=O)(=O)N2CCOCC2)/C3=C(C=CC(=C3)Cl)O
Outline: as §1

[15] = compound: C1=CC2=C(C=CC(=C2)/C=C\3/C(=O)NC(=NCC4=CC=CS4)S3)N=C1
Outline: as §1

[16] = compound: C1=CC=C2C(=C1)C3=NNC4=CC=CC(=C43)C2=O
Outline: as §1

Measured: log2 fold change

SUPT3H (UniProt O75486)
inactive: erlotinib -0.063 | [1] 0.035 | [2] 0.003 | [3] 0.024 | [4] -0.068 | IRAK-1-4 Inhibitor I 0.146 | [5] 0.048 | ralimetinib -0.003 | [6] -0.047 | [7] 0.066 | [8] -0.014 | [9] -0.019 | [10] -0.018

SUSD1 isoform 2 (UniProt Q6UWL2)
inactive: erlotinib 0.177 | [1] -0.21 | [2] -0.017 | [3] -0.009 | [4] 0 | IRAK-1-4 Inhibitor I 0 | ralimetinib 0.122 | [6] -0.024 | [7] -0.101 | [11] 0.071 | [8] -0.027 | [9] 0.368

STK35 (UniProt Q8TDR2)
inactive: [12] -0.251 | [3] -0.034 | [4] 0.074 | ibrutinib -0.136 | [5] -0.065 | [11] -0.268 | [10] -0.002

SYNGR2 (UniProt K7EJ35)
inactive: [13] -0.13

SVBP (UniProt Q8N300)
inactive: erlotinib 0.017 | [1] 0.134 | [2] -0.05 | [3] -0.031 | [4] 0.088 | IRAK-1-4 Inhibitor I 0.148 | ralimetinib 0.022 | [6] -0.034 | [7] -0.038 | [13] -0.055 | [8] 0.033 | [9] 0.058

STON1 isoform 2 (UniProt Q9Y6Q2)
inactive: erlotinib -0.084 | [1] -0.108 | [2] -0.046 | IRAK-1-4 Inhibitor I -0.063 | [5] 0.042 | ralimetinib 0.054 | [6] -0.023 | [7] -0.005 | [13] 0.128 | [9] -0.14 | [10] -0.013

SUN1 isoform 9 (UniProt O94901)
inactive: [2] 0.074 | IRAK-1-4 Inhibitor I 0.194 | ralimetinib 0.106 | [6] -0.258 | [9] 0.028

SYNGR1 isoform 2 (UniProt O43759)
inactive: erlotinib -0.029 | [1] -0.046 | [12] -0.065 | [2] -0.099 | [3] 0.052 | [4] -0.089 | IRAK-1-4 Inhibitor I 0.219 | ibrutinib 0.036 | ralimetinib -0.031 | [6] -0.015 | [7] -0.106 | [8] 0.086 | [9] -0.201

TAF3 (UniProt Q5VWG9)
inactive: [2] 0.122 | IRAK-1-4 Inhibitor I -0.327 | [5] -0.1 | ralimetinib 0.1 | [6] 0.132 | [13] 0.149 | [9] 0.158 | [10] -0.323

STK17A (UniProt Q9UEE5)
inactive: [13] 0.213

SYNM (UniProt O15061)
inactive: [12] -0.027 | [3] -0.152 | [4] 0.053 | ibrutinib -0.014

SUCO isoform 2 (UniProt Q9UBS9)
inactive: [14] -0.154 | [15] 0.004 | [2] 0.126 | [16] -0.061 | [3] -0.078 | [4] -0.01 | IRAK-1-4 Inhibitor I 0.133 | ralimetinib -0.073 | [6] 0.151 | [8] -0.028 | [9] 0.033

Random excerpt: 2 entries already listed.
SYNM (UniProt O15061)
inactive: [12] -0.027 | [3] -0.152 | [4] 0.053 | ibrutinib -0.014

SYNGR1 isoform 2 (UniProt O43759)
inactive: erlotinib -0.029 | [1] -0.046 | [12] -0.065 | [2] -0.099 | [3] 0.052 | [4] -0.089 | IRAK-1-4 Inhibitor I 0.219 | ibrutinib 0.036 | ralimetinib -0.031 | [6] -0.015 | [7] -0.106 | [8] 0.086 | [9] -0.201

More records follow:

STK10 (UniProt O94804)
inactive: erlotinib 0.121 | [1] 0.041 | [12] -0.15 | [2] 0.083 | IRAK-1-4 Inhibitor I 0.122 | ibrutinib -0.047 | ralimetinib -0.191 | [6] -0.298 | [7] 0.118 | [11] -0.016 | [8] 0.379 | [9] 0.084

STK38L (UniProt Q9Y2H1)
inactive: erlotinib -0.001 | [1] -0.163 | [2] 0.113 | [3] -0.027 | [4] 0.11 | IRAK-1-4 Inhibitor I 0.011 | ralimetinib -0.069 | [6] 0.021 | [7] -0.019 | [13] -0.024 | [11] -0.019 | [8] 0 | [9] 0.056

SYNGR3 (UniProt O43761)
inactive: [12] -0.073 | ibrutinib 0.059

STK26 isoform 3 (UniProt Q9P289)
inactive: [3] 0.272 | [4] -0.045 | [11] -0.157 | [8] -0.146

TACC3 (UniProt C9JWI7)
inactive: [14] -0.228 | [15] -0.025 | [16] -0.213

TADA2A (UniProt O75478)
inactive: erlotinib -0.001 | [1] 0.147 | [2] 0.035 | IRAK-1-4 Inhibitor I 0.136 | ralimetinib 0.008 | [6] -0.078 | [7] 0.152 | [13] -0.043 | [8] 0.124 | [9] -0.015

SUFU (UniProt Q9UMX1)
inactive: [14] -0.222 | [15] -0.02 | [2] 0.014 | [16] 0.164 | IRAK-1-4 Inhibitor I 0.06 | [5] -0.034 | ralimetinib -0.083 | [6] -0.045 | [8] -0.022 | [9] -0.067 | [10] 0.025

SWSAP1 (UniProt Q6NVH7)
inactive: erlotinib 0.014 | [1] -0.145 | [2] 0.001 | IRAK-1-4 Inhibitor I -0.038 | ralimetinib -0.001 | [6] 0.013 | [7] -0.112 | [13] -0.147 | [11] -0.166 | [9] 0.096
